Data taken from the supplement of paper PMC10849652.
This is one part of the list.

By UniProt entry, the sequences of proteins in these tests, tags left out. Where a name states a change or a piece, a line headed by the entry shows the natural chain unless it says otherwise.
UniProt Q9NTI5: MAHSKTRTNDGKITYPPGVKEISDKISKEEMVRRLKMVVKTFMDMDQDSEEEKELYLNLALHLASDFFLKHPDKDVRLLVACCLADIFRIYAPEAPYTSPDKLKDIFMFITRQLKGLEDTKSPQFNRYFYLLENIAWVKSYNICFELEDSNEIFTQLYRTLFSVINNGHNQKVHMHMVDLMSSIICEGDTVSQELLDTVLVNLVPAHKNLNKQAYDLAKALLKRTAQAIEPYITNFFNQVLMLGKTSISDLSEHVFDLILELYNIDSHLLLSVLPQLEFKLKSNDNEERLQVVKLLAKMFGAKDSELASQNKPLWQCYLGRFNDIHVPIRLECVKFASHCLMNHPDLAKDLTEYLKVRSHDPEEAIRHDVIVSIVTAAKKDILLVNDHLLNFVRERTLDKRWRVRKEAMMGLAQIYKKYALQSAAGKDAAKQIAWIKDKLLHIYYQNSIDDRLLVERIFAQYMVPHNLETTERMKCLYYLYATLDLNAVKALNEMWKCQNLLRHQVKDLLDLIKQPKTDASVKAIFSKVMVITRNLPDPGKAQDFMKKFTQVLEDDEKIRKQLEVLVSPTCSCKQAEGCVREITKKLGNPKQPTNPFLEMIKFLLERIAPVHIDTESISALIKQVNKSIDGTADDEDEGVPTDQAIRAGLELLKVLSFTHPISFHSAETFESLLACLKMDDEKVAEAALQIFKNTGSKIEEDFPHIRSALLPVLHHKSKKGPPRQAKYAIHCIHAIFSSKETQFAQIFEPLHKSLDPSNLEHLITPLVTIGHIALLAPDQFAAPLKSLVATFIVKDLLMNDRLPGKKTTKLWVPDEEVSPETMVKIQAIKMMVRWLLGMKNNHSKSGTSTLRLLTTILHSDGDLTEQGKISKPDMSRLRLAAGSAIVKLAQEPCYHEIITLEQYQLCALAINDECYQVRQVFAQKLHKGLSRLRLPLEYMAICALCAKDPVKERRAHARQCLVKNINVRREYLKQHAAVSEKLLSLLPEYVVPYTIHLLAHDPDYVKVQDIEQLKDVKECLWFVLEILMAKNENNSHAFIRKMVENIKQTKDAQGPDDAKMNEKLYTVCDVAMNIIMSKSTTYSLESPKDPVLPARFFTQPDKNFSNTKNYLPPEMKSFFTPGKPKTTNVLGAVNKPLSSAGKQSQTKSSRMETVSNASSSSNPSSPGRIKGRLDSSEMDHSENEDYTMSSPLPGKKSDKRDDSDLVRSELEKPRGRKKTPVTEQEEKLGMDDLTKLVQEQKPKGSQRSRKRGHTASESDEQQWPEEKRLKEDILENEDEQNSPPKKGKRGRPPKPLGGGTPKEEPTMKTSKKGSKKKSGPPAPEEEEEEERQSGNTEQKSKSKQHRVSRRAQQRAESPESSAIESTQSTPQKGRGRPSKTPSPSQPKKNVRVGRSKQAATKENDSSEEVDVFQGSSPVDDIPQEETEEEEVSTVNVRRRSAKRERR
UniProt P68402: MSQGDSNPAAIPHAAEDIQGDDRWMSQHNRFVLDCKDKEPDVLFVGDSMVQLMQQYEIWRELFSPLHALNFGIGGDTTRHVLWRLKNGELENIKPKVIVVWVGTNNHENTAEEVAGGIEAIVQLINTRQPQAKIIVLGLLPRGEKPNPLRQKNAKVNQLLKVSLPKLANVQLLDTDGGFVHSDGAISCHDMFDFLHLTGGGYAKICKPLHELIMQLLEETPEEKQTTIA
UniProt Q16822, whole entry, looked up: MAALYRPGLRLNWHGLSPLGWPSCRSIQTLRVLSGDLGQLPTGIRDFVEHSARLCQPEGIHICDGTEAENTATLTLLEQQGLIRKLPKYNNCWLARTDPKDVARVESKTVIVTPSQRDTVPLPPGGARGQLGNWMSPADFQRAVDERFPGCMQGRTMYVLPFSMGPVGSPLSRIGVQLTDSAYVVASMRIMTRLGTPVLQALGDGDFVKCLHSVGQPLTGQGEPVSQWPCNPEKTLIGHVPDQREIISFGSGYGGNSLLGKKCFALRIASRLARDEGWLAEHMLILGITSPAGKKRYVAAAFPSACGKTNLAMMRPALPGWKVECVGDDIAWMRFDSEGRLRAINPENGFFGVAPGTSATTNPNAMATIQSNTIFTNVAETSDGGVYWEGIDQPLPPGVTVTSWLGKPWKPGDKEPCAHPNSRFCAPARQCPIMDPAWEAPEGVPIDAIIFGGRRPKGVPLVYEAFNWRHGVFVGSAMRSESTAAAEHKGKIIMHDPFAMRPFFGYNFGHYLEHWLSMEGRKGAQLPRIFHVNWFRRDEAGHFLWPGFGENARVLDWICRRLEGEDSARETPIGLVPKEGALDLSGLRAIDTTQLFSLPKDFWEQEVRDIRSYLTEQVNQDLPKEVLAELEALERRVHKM
UniProt Q13153, whole entry, looked up: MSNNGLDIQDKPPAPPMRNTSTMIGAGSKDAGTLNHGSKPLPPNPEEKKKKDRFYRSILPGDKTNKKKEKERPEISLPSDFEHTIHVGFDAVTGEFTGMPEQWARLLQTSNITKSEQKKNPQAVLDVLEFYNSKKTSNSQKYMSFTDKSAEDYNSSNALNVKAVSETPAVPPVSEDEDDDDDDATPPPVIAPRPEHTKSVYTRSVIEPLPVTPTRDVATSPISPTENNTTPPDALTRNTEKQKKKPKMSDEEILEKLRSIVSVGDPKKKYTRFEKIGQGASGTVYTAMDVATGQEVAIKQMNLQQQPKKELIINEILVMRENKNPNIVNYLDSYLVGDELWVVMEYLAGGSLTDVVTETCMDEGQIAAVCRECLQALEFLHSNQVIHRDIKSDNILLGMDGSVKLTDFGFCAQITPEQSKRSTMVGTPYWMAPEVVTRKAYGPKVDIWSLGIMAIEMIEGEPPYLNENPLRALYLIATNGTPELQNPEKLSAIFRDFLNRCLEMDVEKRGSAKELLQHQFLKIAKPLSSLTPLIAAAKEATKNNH
UniProt Q15004: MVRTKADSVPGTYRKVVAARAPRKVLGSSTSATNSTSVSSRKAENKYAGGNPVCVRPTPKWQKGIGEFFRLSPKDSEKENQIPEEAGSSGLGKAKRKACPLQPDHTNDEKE
UniProt Q9H813: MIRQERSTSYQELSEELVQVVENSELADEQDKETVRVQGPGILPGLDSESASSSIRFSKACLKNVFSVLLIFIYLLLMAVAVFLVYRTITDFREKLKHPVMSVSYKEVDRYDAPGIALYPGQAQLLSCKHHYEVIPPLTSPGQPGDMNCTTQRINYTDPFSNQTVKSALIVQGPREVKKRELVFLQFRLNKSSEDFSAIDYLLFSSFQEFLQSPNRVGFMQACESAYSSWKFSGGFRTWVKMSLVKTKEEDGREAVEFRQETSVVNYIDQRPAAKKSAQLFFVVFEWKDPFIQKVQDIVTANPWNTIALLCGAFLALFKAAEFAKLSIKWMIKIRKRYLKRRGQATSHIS
UniProt P11498: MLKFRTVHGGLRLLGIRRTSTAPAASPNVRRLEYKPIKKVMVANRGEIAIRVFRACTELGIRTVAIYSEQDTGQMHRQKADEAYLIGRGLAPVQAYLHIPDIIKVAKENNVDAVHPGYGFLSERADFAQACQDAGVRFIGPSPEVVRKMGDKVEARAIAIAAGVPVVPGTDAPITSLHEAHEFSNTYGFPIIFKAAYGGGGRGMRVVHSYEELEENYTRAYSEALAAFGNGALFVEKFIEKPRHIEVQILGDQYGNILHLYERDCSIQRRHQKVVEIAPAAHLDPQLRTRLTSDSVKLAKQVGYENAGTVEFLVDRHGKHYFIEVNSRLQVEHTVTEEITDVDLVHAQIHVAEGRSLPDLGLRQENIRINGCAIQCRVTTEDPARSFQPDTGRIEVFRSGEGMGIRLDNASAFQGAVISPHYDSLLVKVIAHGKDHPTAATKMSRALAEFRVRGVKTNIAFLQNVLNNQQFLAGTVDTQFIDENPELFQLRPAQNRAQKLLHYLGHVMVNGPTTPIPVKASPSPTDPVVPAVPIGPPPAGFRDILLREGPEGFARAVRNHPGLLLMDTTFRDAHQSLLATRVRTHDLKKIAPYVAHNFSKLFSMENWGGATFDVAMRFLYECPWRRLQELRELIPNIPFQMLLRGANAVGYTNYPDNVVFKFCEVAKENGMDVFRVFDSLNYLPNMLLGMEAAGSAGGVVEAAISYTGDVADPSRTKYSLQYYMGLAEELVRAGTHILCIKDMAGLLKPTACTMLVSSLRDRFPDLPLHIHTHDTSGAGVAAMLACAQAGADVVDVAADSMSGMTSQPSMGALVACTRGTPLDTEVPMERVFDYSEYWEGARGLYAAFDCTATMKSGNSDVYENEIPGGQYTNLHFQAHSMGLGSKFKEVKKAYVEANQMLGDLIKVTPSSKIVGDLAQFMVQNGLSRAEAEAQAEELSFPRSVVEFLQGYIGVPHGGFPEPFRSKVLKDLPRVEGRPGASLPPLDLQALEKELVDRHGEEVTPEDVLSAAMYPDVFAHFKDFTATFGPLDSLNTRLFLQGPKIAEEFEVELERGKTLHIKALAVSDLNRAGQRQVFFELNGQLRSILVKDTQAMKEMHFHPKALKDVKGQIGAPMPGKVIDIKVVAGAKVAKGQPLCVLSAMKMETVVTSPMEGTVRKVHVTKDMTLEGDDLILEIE
UniProt Q92968: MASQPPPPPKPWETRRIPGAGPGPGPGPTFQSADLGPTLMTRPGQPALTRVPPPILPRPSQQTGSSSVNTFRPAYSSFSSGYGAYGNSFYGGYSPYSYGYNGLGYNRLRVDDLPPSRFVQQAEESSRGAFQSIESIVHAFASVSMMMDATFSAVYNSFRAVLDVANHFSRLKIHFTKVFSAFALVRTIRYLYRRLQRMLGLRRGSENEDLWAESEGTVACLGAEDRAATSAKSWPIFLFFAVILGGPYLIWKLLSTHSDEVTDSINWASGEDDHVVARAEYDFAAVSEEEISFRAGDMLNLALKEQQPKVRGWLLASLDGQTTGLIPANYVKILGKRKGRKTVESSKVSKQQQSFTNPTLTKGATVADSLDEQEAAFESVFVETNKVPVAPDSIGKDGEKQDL
UniProt Q9Y5K3: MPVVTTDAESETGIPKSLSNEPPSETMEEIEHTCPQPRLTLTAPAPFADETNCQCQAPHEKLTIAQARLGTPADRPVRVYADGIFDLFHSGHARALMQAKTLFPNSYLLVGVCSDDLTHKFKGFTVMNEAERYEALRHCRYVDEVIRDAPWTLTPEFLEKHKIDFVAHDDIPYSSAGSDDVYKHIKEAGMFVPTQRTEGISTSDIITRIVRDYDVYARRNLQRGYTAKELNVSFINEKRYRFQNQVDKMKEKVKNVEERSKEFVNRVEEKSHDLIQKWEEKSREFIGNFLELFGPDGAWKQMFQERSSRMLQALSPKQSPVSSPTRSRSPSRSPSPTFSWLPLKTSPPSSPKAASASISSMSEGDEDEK
UniProt Q9BZ23: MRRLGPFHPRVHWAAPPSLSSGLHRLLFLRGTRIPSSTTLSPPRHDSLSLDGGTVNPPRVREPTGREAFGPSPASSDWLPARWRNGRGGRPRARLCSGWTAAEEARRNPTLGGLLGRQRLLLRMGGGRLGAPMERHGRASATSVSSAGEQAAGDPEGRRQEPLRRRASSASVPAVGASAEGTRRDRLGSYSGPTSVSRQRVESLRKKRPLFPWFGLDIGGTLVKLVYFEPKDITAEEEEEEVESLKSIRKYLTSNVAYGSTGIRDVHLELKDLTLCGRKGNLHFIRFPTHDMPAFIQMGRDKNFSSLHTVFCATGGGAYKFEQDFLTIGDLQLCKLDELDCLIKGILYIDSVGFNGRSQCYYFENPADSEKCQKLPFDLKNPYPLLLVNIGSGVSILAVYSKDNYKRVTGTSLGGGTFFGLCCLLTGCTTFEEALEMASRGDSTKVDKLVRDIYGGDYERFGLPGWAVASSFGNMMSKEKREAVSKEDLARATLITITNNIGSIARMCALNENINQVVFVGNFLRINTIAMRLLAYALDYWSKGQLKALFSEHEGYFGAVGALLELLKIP
UniProt O95453: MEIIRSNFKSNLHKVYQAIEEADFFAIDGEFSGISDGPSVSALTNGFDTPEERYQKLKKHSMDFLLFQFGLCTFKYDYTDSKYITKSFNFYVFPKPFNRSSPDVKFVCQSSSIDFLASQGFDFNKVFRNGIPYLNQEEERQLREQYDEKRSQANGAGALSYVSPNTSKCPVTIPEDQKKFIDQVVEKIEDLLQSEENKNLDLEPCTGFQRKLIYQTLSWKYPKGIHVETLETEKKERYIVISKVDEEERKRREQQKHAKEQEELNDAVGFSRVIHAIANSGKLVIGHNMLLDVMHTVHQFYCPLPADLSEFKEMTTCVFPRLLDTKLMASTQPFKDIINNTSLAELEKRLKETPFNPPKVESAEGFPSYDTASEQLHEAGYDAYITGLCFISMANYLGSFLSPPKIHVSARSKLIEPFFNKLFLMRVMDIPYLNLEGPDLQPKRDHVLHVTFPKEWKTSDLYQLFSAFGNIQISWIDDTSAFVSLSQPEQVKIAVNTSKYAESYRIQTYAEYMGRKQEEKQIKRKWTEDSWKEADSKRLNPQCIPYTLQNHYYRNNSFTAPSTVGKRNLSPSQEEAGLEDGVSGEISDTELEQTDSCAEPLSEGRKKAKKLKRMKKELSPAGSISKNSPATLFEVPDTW

What was measured:
Test in all cases: log2 fold change, soluble protein after heating vs DMSO (PISA); higher = thermal stabilisation; K562 cells, 10 uM, 30 min; active = over 0.2 and 3.5 SD of the protein, either way, in both replicates (recomputed)
[1] = compound: CS(=O)(=O)c1ccc(-c2cnc(N)c(C(=O)Nc3ccccc3)n2)cc1
Procedure, shortened: (§1)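 Thermal stability values are relative to control samples and come from duplicates. They are expressed as log2 fold changes. For measurement, K562 cells (2×10^6 cells/mL) received 10 μM compound for 30 min, and aliquots were heated for 3 min over 48°C-58°C, pooled, and extracted at 4°C in PBS with 0.5% NP-40. Soluble protein, the supernatant after 21,000xg for 90 min, was quantified by TMTpro 16plex LC-MS/MS with equalised channel sums.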

crizotinib = compound: C[C@@H](Oc1cc(-c2cnn(C3CCNCC3)c2)cnc1N)c1c(Cl)ccc(F)c1Cl [crizotinib]
Procedure, shortened: as §1

[2] = compound: C[C@@H]1COCCN1C2=NC(=NC(=C2)C3(CC3)S(=O)(=O)C)C4=C5C=CNC5=CC=C4
Procedure, shortened: as §1

[3] = compound: C[C@H](C1=CC=C(C=C1)C(=O)NC2=C3C=CNC3=NC=C2)N
Procedure, shortened: as §1

gandotinib = compound: Cc1cc(Nc2cc(CN3CCOCC3)c3nc(C)c(Cc4ccc(Cl)cc4F)n3n2)n[nH]1 [gandotinib]
Procedure, shortened: as §1

tozasertib = compound: Cc1cc(Nc2cc(N3CCN(C)CC3)nc(Sc3ccc(NC(=O)C4CC4)cc3)n2)n[nH]1 [tozasertib]
Procedure, shortened: as §1

[4] = compound: Cc1cc(SCc2sc(-c3ccc(C(F)(F)F)cc3)nc2C)ccc1OCC(=O)O
Procedure, shortened: as §1

doramapimod = compound: Cc1ccc(-n2nc(C(C)(C)C)cc2NC(=O)Nc2ccc(OCCN3CCOCC3)c3ccccc23)cc1 [doramapimod]
Procedure, shortened: as §1

ispinesib = compound: Cc1ccc(C(=O)N(CCCN)[C@@H](c2nc3cc(Cl)ccc3c(=O)n2Cc2ccccc2)C(C)C)cc1 [ispinesib]
Procedure, shortened: as §1

bafetinib = compound: Cc1ccc(NC(=O)c2ccc(CN3CC[C@H](N(C)C)C3)c(C(F)(F)F)c2)cc1Nc1nccc(-c2cncnc2)n1 [bafetinib]
Procedure, shortened: as §1

[5] = compound: Cc1cccc(CC(=O)N2CCc3c2ccc(-c2cn(C)c4ncnc(N)c24)c3F)n1
Procedure, shortened: as §1

nilotinib = compound: Cc1cn(-c2cc(NC(=O)c3ccc(C)c(Nc4nccc(-c5cccnc5)n4)c3)cc(C(F)(F)F)c2)cn1 [nilotinib]
Procedure, shortened: as §1

[6] = compound: Cc1nc(Nc2n[nH]c3c2CN(C(=O)N[C@H](CN(C)C)c2ccccc2)C3(C)C)c2sccc2n1
Procedure, shortened: as §1

dasatinib = compound: Cc1nc(Nc2ncc(C(=O)Nc3c(C)cccc3Cl)s2)cc(N2CCN(CCO)CC2)n1 [dasatinib]
Procedure, shortened: as §1

[7] = compound: Cc1ncc(-c2ccnc(Nc3ccc(S(C)(=O)=O)cc3)n2)n1C(C)C
Procedure, shortened: as §1

[8] = compound: Cn1cc(-c2ccc3c(c2)CCN3C(=O)Cc2cccc(C(F)(F)F)c2)c2c(N)ncnc21
Procedure, shortened: as §1

[9] = compound: Cn1cc(-c2ccc3nnc(C(F)(F)c4ccc5ncccc5c4)n3n2)cn1
Procedure, shortened: as §1

tipifarnib = compound: Cn1cncc1[C@@](N)(c1ccc(Cl)cc1)c1ccc2c(c1)c(-c1cccc(Cl)c1)cc(=O)n2C [tipifarnib]
Procedure, shortened: as §1

mubritinib = compound: FC(F)(F)c1ccc(/C=C/c2nc(COc3ccc(CCCCn4ccnn4)cc3)co2)cc1 [mubritinib]
Procedure, shortened: as §1

duvelisib = compound: C[C@H](Nc1ncnc2nc[nH]c12)c1cc2cccc(Cl)c2c(=O)n1-c1ccccc1 [duvelisib]
Procedure, shortened: as §1

Measured: log2 fold change

PDS5B (UniProt Q9NTI5)
active: tozasertib -0.604
inactive: [1] 0.03 | crizotinib -0.229 | [2] 0.222 | [3] 0.041 | gandotinib -0.149 | [4] 0.208 | doramapimod -0.074 | ispinesib -0.225 | bafetinib 0.041 | [5] -0.139 | nilotinib -0.314 | [6] 0.04 | dasatinib -0.244 | [7] -0.031 | [8] 0.038 | [9] 0.147 | tipifarnib 0.054 | mubritinib 0.127

PCSK9 (UniProt Q8NBP7)
inactive: [1] 0.081 | crizotinib 0.015 | [2] -0.01 | [3] 0.038 | gandotinib -0.01 | tozasertib -0.093 | doramapimod 0.041 | ispinesib 0.023 | bafetinib 0.057 | [5] -0.057 | nilotinib 0.069 | [6] -0.067 | [7] -0.01 | [8] 0.011 | [9] -0.023 | tipifarnib 0.061 | mubritinib -0.077

PAFAH1B2 (UniProt P68402)
inactive: [1] 0.016 | crizotinib -0.017 | [2] -0.13 | [3] -0.054 | gandotinib 0.16 | [4] -0.066 | doramapimod 0.022 | ispinesib -0.002 | bafetinib -0.025 | [5] 0.035 | nilotinib 0.067 | [6] -0.121 | dasatinib -0.011 | [7] -0.075 | [8] 0.024 | [9] 0.003 | tipifarnib 0.188 | mubritinib 0.092

PCK2 (UniProt Q16822)
inactive: [1] 0.009 | crizotinib 0.17 | [2] 0.01 | [3] -0.098 | gandotinib 0 | [4] -0.012 | doramapimod 0 | ispinesib 0.076 | bafetinib -0.052 | [5] 0.027 | nilotinib -0.05 | [6] 0.027 | dasatinib -0.035 | [7] -0.006 | [8] 0.041 | [9] 0.003 | tipifarnib 0 | mubritinib -0.022

PAK1 isoform 2 (UniProt Q13153)
inactive: [1] 0.009 | crizotinib 0.054 | [2] 0.063 | gandotinib -0.098 | [4] 0.056 | doramapimod -0.155 | ispinesib 0.084 | bafetinib -0.017 | [5] 0.04 | nilotinib 0.03 | [6] 0.036 | dasatinib -0.025 | [7] -0.027 | [8] 0.041 | [9] 0.035 | tipifarnib -0.004 | mubritinib 0.015
active: [3] -0.308

PCLAF (UniProt Q15004)
inactive: [1] -0.175 | crizotinib 0.027 | [2] -0.19 | [3] 0.052 | gandotinib -0.07 | [4] -0.097 | doramapimod 0.022 | ispinesib 0.079 | bafetinib -0.015 | [5] -0.1 | nilotinib -0.027 | [6] 0.105 | dasatinib 0.065 | [7] -0.081 | [8] -0.112 | [9] -0.069 | tipifarnib -0.019 | mubritinib -0.095

PAK4 (UniProt O96013)
inactive: [1] -0.028 | crizotinib -0.033 | [2] 0.058 | [3] -0.017 | gandotinib -0.028 | [4] 0.021 | doramapimod -0.042 | ispinesib -0.111 | bafetinib -0.072 | [5] 0.011 | nilotinib -0.016 | dasatinib -0.068 | [7] 0.01 | [8] 0.04 | [9] 0.007 | tipifarnib 0.015 | mubritinib -0.092
active: [6] 0.352

2 records drawn at random from those above, as already listed:
PCLAF (UniProt Q15004)
inactive: [1] -0.175 | crizotinib 0.027 | [2] -0.19 | [3] 0.052 | gandotinib -0.07 | [4] -0.097 | doramapimod 0.022 | ispinesib 0.079 | bafetinib -0.015 | [5] -0.1 | nilotinib -0.027 | [6] 0.105 | dasatinib 0.065 | [7] -0.081 | [8] -0.112 | [9] -0.069 | tipifarnib -0.019 | mubritinib -0.095

PCK2 (UniProt Q16822)
inactive: [1] 0.009 | crizotinib 0.17 | [2] 0.01 | [3] -0.098 | gandotinib 0 | [4] -0.012 | doramapimod 0 | ispinesib 0.076 | bafetinib -0.052 | [5] 0.027 | nilotinib -0.05 | [6] 0.027 | dasatinib -0.035 | [7] -0.006 | [8] 0.041 | [9] 0.003 | tipifarnib 0 | mubritinib -0.022

(next part)

PACC1 (UniProt Q9H813)
inactive: [1] 0.126 | crizotinib -0.078 | [2] 0.039 | [3] -0.171 | duvelisib 0.07 | tozasertib 0 | [4] -0.124 | doramapimod -0.001 | bafetinib -0.057 | nilotinib 0.027 | [6] 0.062 | dasatinib 0.04 | [7] 0.105 | [8] 0.018 | tipifarnib 0.128 | mubritinib 0.045

PCTP (UniProt Q9UKL6)
inactive: [1] 0.094 | crizotinib -0.135 | [2] 0.031 | [3] 0.003 | gandotinib 0.029 | [4] -0.033 | doramapimod -0.048 | ispinesib 0.015 | bafetinib -0.067 | [5] -0.004 | nilotinib -0.04 | [6] 0.114 | dasatinib -0.024 | [7] -0.017 | [8] 0.065 | [9] 0.036 | tipifarnib -0.104 | mubritinib 0.063

PCYT1A (UniProt P49585)
active: nilotinib -1.47
inactive: [1] -0.031 | crizotinib -0.032 | [2] 0.092 | [3] -0.097 | gandotinib -0.148 | [4] 0.094 | doramapimod -0.008 | ispinesib 0.003 | bafetinib -0.142 | [5] 0.035 | [6] -0.129 | dasatinib -0.185 | [7] -0.04 | [8] 0.033 | [9] 0.001 | tipifarnib 0.006 | mubritinib 0.176

PC (UniProt P11498)
inactive: [1] 0.033 | crizotinib 0.103 | [2] 0.199 | [3] 0.167 | gandotinib -0.143 | [4] 0.024 | doramapimod 0.008 | ispinesib 0.186 | bafetinib 0.096 | [5] 0.102 | nilotinib -0.014 | [6] 0.121 | dasatinib 0.005 | [7] -0.007 | [8] 0.047 | [9] 0.074 | tipifarnib -0.097 | mubritinib 0.024

PEX13 (UniProt Q92968)
inactive: [1] -0.005 | crizotinib -0.146 | [2] 0.034 | [3] -0.047 | gandotinib -0.143 | [4] -0.016 | doramapimod 0.056 | ispinesib -0.026 | bafetinib -0.159 | [5] 0.106 | nilotinib -0.046 | [6] 0 | dasatinib 0.014 | [7] 0.035 | [8] -0.071 | [9] -0.075 | tipifarnib -0.027 | mubritinib 0.042

PDIA6 isoform 2 (UniProt Q15084)
inactive: [1] 0.011 | crizotinib 0.036 | [2] -0.016 | [3] -0.022 | duvelisib -0.003 | gandotinib -0.037 | tozasertib -0.021 | [4] -0.027 | doramapimod -0.014 | ispinesib 0.05 | bafetinib -0.055 | [5] -0.086 | nilotinib 0 | [6] -0.004 | dasatinib 0.067 | [7] -0.02 | [8] -0.035 | [9] 0.057 | tipifarnib 0.052 | mubritinib 0.016

PCYT1B (UniProt Q9Y5K3)
active: nilotinib -1.28
inactive: [1] -0.008 | crizotinib -0.109 | [2] 0.147 | [3] -0.109 | gandotinib -0.088 | [4] 0.044 | doramapimod -0.036 | ispinesib 0.12 | bafetinib -0.193 | [5] -0.068 | [6] -0.105 | dasatinib -0.142 | [7] -0.089 | [8] -0.024 | [9] -0.037 | tipifarnib -0.053 | mubritinib 0.168

PANK2 (UniProt Q9BZ23)
inactive: [1] 0.046 | crizotinib 0.107 | [2] 0.06 | [3] -0.144 | duvelisib -0.015 | gandotinib 0.006 | tozasertib 0 | [4] 0.05 | doramapimod -0.024 | ispinesib -0.063 | bafetinib -0.032 | [5] -0.049 | nilotinib -0.025 | [6] 0.016 | dasatinib 0.015 | [7] 0.001 | [8] 0.096 | [9] 0.018 | tipifarnib 0.005 | mubritinib -0.155

PARN (UniProt O95453)
inactive: [1] 0.028 | crizotinib -0.095 | [2] 0.125 | [3] -0.025 | gandotinib -0.127 | [4] 0.069 | doramapimod -0.037 | ispinesib -0.021 | bafetinib -0.104 | [5] 0.019 | nilotinib -0.018 | [6] -0.073 | dasatinib -0.182 | [7] -0.011 | [8] -0.003 | [9] 0.018 | tipifarnib -0.01 | mubritinib 0.076

PEX11B (UniProt O96011)
inactive: [1] -0.042 | crizotinib 0.02 | [2] 0.148 | [3] -0.012 | gandotinib -0.073 | [4] 0.014 | doramapimod 0.002 | ispinesib 0.07 | bafetinib -0.022 | [5] 0.081 | nilotinib 0.04 | [6] 0.041 | dasatinib -0.071 | [7] -0.043 | [8] 0.049 | [9] 0.01 | tipifarnib -0.063 | mubritinib 0.058
